Laboratory results taken from PubChem BioAssay AID493014 (National Center for Advancing Translational Sciences (NCATS), 2011).
Some of the results follow. The main result of the screen is listed elsewhere. These columns were measured beside it and carry no call. Most of these compounds were active or inconclusive in the main read-out, so they are no random draw. Words in brackets tell the shape of the fitted curve; partial curves, single points and poor fits give uncertain potencies.

Experiment: qHTS Assay to Find Inhibitors of Chronic Active B-Cell Receptor Signaling
Conditions: ABC-DLBCL IkBa-CBG/CBR reporter, luminescence ratio (green luciferase fused to IkBa over red control in TMD8 lymphoma cells), 4 h
In short: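 TMD8 human ABC-DLBCL cells with doxycycline-inducible IκBα–green luciferase fusion and unfused red luciferase, in 0.5% FBS medium; compounds up to 46 uM, 4 h at 37C. Green/red luminescence ratio, filter-overlap corrected, fitted to concentration-response curves.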

[1] = measured here: CBR red luminescence, cell number
[2] = measured here: IkBa-CBG green luminescence

## COc1c(C)cc(C(=O)C2CCCN(Cc3cnc(C)s3)C2)cc1C (stereo not given)
[1]
  AC50: 15.8 µM [rising, single point]

## CNC(=O)N(C)c1nnc(C(C)(C)C)s1
[1]
  AC50: 7.31 µM [rising, partial curve, poor fit]

## O=C(O)C1C2CCC(O2)C1C(=O)Nc1ccc(Cl)cc1 (stereo not given)
[1]
  AC50: 31.6 µM [rising, single point]

## NC(=S)c1cn(C2OC(CO)C(O)C2O)c2ncnc(N)c12 (stereo not given)
[1]
  AC50: 1.58 µM [falling, full curve]
[2]
  AC50: 1 µM [rising, full curve, poor fit]

## CN1CCC2(O)OCCCC2C1 (stereo not given)
[1]
  AC50: 12.6 µM [falling, partial curve, poor fit]

## Cc1ccc(-c2cc(-c3ccccc3)cc(-c3ccccc3)[n+]2-c2ccccc2)cc1
[1]
  AC50: 23.1 µM [falling, single point]
[2]
  AC50: 20.6 µM [rising, partial curve, poor fit]

## C[C@]12CCC3[C@@H](CCC4=CC(=O)CC[C@@]43C=O)C1CCC2=O (stereo not given in full)
[1]
  AC50: 35.5 µM [rising, single point]

## CC(=O)c1c(O)n(C2CCCCCC2)c(=O)[nH]c1=O
[1]
  AC50: 18.4 µM [rising, single point]

## COC1=C(C)C(=O)O[C@]12C(=O)C(C)=C1CCCCN3[C@H]([C@@H]4C[C@H](C)C(=O)O4)CC[C@]132
[1]
  AC50: 5.8 µM [falling, full curve, poor fit]

## Cn1c(=O)oc2cc(S(=O)(=O)N3CCc4ccccc43)ccc21
[1]
  AC50: 35.5 µM [falling, single point]

## O=C1Nc2cc(C(=O)N3CCC4(CC3)OCCO4)ccc2NC1CSCc1cccc(F)c1 (stereo not given)
[1]
  AC50: 25.1 µM [rising, single point]
[2]
  AC50: 35.5 µM [falling, single point]

## FC(F)(F)C1=NC(C(F)(F)F)=NP(N2CCOCC2)(N2CCOCC2)=N1
[1]
  AC50: 3.26 µM [falling, partial curve, poor fit]

## COC(=O)C1=C(c2ccc(F)cc2OCc2ccccc2)C[C@@H]2CC[C@H]1N2C(=O)NCCc1ccc(F)cc1
[1]
  AC50: 20.6 µM [falling, partial curve, poor fit]

## Cc1ccc2c(c1)=C/C(=C\c1c(O)[nH]c(=O)[nH]c1=O)C(=O)N=2
[1]
  AC50: 1.3 µM [rising, full curve, poor fit]

## COc1ccccc1N1CCN(Cc2c(F)cccc2F)CC1
[1]
  AC50: 20.6 µM [rising, single point]

## O=c1[nH]c(=O)n(-c2ccccc2Cl)c(O)c1C=NCCN1CCCCC1
[1]
  AC50: 20.6 µM [rising, single point]

## CC(NCc1cccc(Cl)c1Cl)C(O)c1ccccc1 (stereo not given)
[1]
  AC50: 9.2 µM [rising, partial curve, poor fit]

## NC(=O)CN1CC(c2ccccc2)CC1=O (stereo not given)
[1]
  AC50: 0.164 µM [rising, single point]

## CCc1nc2ccccc2c(=O)n1-c1ccccc1[N+](=O)[O-]
[1]
  AC50: 29.1 µM [rising, single point]

## Oc1ccc(Cl)cc1Cc1cc(Cl)ccc1O
[1]
  AC50: 29.1 µM [falling, single point]

## COc1cc(CN2C(=O)NC(=O)C3(Cc4cc(C)ccc4N(C)C3)C2=O)cc(OC)c1 (stereo not given)
[1]
  AC50: 3.26 µM [falling, single point]

## CCOC(=O)[C@@H]1[C@H]2COc3ccc(Br)cc3[C@@H]2N2C(=O)N(c3cccc(C)c3)C(=O)[C@]12C
[1]
  AC50: 8.91 µM [falling, partial curve, poor fit]

## CN(C)CCc1nc2ccccc2c(=O)n1-c1ccccc1
[1]
  AC50: 1.84 µM [rising, partial curve]

## Cc1ccccc1NC(=O)Cn1c(=O)oc2cc(Br)ccc21
[1]
  AC50: 5.01 µM [falling, partial curve, poor fit]

## O=C(N/N=C/c1c(O)n(CCc2ccccc2)c(=O)[nH]c1=O)c1ccccc1O
[1]
  AC50: 2.82 µM [falling, full curve]

## CC(C)=CCSc1nnc([C@@H](N)Cc2c[nH]c3ccccc23)o1
[1]
  AC50: 11.6 µM [rising, partial curve, poor fit]

## COc1cccc(NP(=O)(Oc2ccccc2Cl)Oc2ccccc2Cl)c1
[1]
  AC50: 5.8 µM [falling, partial curve, poor fit]

## COC(=O)C1=C(c2ccc3ccccc3c2)C[C@@H]2CC[C@H]1N2C(=O)N1CCC(C)CC1
[1]
  AC50: 32.6 µM [falling, single point]

## COC(=O)c1cc(CSc2nc3ccc(C)cc3[nH]2)oc1C
[1]
  AC50: 11.2 µM [falling, partial curve, poor fit]

## COc1ccc(-n2c(/C=C/c3cccc(F)c3)nc3ccccc3c2=O)c(OC)c1
[1]
  AC50: 0.708 µM [rising, full curve, poor fit]

## COc1ccc(CN2C(=O)C(C)N(C(=O)c3c(F)cccc3F)c3ccccc32)cc1 (stereo not given)
[1]
  AC50: 35.5 µM [falling, single point]

## COc1ccc(-c2nn(CCC#N)cc2C(=O)Nc2ccc(C(C)=O)cc2)cc1
[1]
  AC50: 17.8 µM [rising, partial curve, poor fit]
[2]
  AC50: 12.6 µM [falling, single point]

## O=c1c2ccccc2nc(-c2ccco2)n1-c1ccccc1
[1]
  AC50: 3.26 µM [rising, partial curve, poor fit]

## CN(C)CCC=C1c2ccccc2CCc2ccccc21
[1]
  AC50: 20.6 µM [falling, single point]

## COc1cccc(-n2c(/C=C/c3ccc(O)c(O)c3)nc3ccccc3c2=O)c1
[1]
  AC50: 11.2 µM [falling, partial curve]

## CC(C)c1ccc(OCC(=O)N2CCN(C)CC2)c(Br)c1
[1]
  AC50: 29.1 µM [rising, single point]

## O=c1[nH]c(=S)n(-c2cccc(Cl)c2)c(O)c1C=NCCN1CCNCC1
[1]
  AC50: 12.6 µM [falling, partial curve]

## Cn1c(=O)c2[nH]cnc2n(C)c1=O
[1]
  AC50: 2 µM [falling, full curve]

## Cc1ccc(S(=O)(=O)CC(CN2CCCCC2)N2CCCCC2)cc1 (stereo not given)
[1]
  AC50: 2.51 µM [falling, full curve, poor fit]

## CCNc1cc(N2CCN(C)CC2)ccc1[N+](=O)[O-]
[1]
  AC50: 35.5 µM [falling, single point]

## O=C1CN=C(c2ccccc2Cl)c2cc(Cl)ccc2N1Cc1cccc(Cl)c1
[2]
  AC50: 7.94 µM [rising, partial curve, poor fit]

## O=C1CC(=O)N(c2cccc(F)c2)C(=O)N1
[1]
  AC50: 10 µM [falling, partial curve, poor fit]

## CC(=O)OC(C)(C)/C=C/C(=O)C(C)(O)C1[C@H](O)C[C@@]2(C)C3CC=C4C(CC[C@@H](O)C4(C)C)[C@]3(CO)C(=O)C[C@]12C (stereo not given in full)
[1]
  AC50: 11.2 µM [falling, single point]

## C[C@]12CCC(=O)C=C1CC[C@@H]1[C@@H]2CC[C@]2(C)C(=O)CC[C@@H]12
[1]
  AC50: 20.6 µM [rising, single point]

## CN(C)c1nc(C=C(C#N)C#N)c(Cl)n1-c1ccc(F)cc1
[1]
  AC50: 10 µM [falling, partial curve, poor fit]

## COC(=O)C1=C(c2ccccc2OCc2ccccc2)C[C@@H]2CC[C@H]1N2C(=O)NCc1ccc(OC)c(OC)c1
[1]
  AC50: 1.46 µM [falling, full curve, poor fit]

## CN1CCN(C(=O)COc2ccc3ccccc3c2)CC1
[1]
  AC50: 11.2 µM [rising, partial curve, poor fit]

## C/C=C(\C)C(=O)OC1C(C)=C2C(C1OC(=O)CCCCC)C(C)(OC(C)=O)CC(OC(=O)CCC)C1(O)C2OC(=O)C1(C)O (stereo not given)
[1]
  AC50: 14.1 µM [falling, single point]

## CCCCOc1ccc(CCN)cc1Cl
[1]
  AC50: 5.17 µM [falling, partial curve, poor fit]

## Cc1ccc2c(c1)C(c1ccccc1)=NCC(=O)N2
[1]
  AC50: 28.2 µM [falling, single point]

## COc1ccccc1N1C(=O)NC(=O)/C(=C\c2cnn(-c3ccccc3)c2)C1=O
[1]
  AC50: 25.1 µM [rising, partial curve]

## CC(C)OCCCNC(=O)c1c(N)n(Cc2cccs2)c2nc3ccccc3nc12
[1]
  AC50: 11.2 µM [falling, partial curve, poor fit]

## CN(C)CCNC(=O)c1cccn(Cc2cccc(C(F)(F)F)c2)c1=O
[1]
  AC50: 10 µM [falling, partial curve]

## O=c1oc2ccccc2c(O)c1C(c1ccccn1)c1c(O)c2ccccc2oc1=O
[1]
  AC50: 2 µM [falling, partial curve, poor fit]

## CC(C)c1nc2cc3ccccc3cc2[nH]1
[1]
  AC50: 14.1 µM [falling, single point]

## C=CCNC(=O)c1c(N)n(CCN2CCOCC2)c2nc3ccccc3nc12
[1]
  AC50: 15.8 µM [falling, single point]

## O=C(O)CN1C(=O)CN=C(c2ccccn2)c2cc(Cl)ccc21
[1]
  AC50: 5.62 µM [rising, single point]

## O=C(N/N=C/c1c(O)n(C2CC2)c(=S)[nH]c1=O)c1ccccc1
[1]
  AC50: 2.82 µM [falling, full curve]

## O=C(c1ccccc1)c1ccc(N=Nc2c(O)[nH]c(=O)[nH]c2=O)cc1
[1]
  AC50: 35.5 µM [rising, single point]

## CCC(C)NC(=O)c1c(N)n(CC2CCCO2)c2nc3ccccc3nc12 (stereo not given)
[1]
  AC50: 12.6 µM [falling, partial curve, poor fit]

## CC[C@H](C)[C@@H](C(=O)N1CCCC1c1nccs1)N(C)C(=O)[C@H](CC(C)C)N(C)C(=O)[C@H](Cc1ccc(OC)cc1)N(C)C(=O)/C=C(\C)OC (stereo not given in full)
[1]
  AC50: 29.1 µM [rising, partial curve, poor fit]
